Results published in paper PMC5996148.
“And” between values parts separate entries of the source, which are not always exact repeats. Identical values can stand only once. The list shows a part of the results. For some of these results: Construct or isoform of the protein are uncertain.

By UniProt entry, the sequences of proteins in these tests, tags left out. Where a name states a change or a piece, a line headed by the entry shows the natural chain unless it says otherwise.
UniProt Q9BTC0, whole entry: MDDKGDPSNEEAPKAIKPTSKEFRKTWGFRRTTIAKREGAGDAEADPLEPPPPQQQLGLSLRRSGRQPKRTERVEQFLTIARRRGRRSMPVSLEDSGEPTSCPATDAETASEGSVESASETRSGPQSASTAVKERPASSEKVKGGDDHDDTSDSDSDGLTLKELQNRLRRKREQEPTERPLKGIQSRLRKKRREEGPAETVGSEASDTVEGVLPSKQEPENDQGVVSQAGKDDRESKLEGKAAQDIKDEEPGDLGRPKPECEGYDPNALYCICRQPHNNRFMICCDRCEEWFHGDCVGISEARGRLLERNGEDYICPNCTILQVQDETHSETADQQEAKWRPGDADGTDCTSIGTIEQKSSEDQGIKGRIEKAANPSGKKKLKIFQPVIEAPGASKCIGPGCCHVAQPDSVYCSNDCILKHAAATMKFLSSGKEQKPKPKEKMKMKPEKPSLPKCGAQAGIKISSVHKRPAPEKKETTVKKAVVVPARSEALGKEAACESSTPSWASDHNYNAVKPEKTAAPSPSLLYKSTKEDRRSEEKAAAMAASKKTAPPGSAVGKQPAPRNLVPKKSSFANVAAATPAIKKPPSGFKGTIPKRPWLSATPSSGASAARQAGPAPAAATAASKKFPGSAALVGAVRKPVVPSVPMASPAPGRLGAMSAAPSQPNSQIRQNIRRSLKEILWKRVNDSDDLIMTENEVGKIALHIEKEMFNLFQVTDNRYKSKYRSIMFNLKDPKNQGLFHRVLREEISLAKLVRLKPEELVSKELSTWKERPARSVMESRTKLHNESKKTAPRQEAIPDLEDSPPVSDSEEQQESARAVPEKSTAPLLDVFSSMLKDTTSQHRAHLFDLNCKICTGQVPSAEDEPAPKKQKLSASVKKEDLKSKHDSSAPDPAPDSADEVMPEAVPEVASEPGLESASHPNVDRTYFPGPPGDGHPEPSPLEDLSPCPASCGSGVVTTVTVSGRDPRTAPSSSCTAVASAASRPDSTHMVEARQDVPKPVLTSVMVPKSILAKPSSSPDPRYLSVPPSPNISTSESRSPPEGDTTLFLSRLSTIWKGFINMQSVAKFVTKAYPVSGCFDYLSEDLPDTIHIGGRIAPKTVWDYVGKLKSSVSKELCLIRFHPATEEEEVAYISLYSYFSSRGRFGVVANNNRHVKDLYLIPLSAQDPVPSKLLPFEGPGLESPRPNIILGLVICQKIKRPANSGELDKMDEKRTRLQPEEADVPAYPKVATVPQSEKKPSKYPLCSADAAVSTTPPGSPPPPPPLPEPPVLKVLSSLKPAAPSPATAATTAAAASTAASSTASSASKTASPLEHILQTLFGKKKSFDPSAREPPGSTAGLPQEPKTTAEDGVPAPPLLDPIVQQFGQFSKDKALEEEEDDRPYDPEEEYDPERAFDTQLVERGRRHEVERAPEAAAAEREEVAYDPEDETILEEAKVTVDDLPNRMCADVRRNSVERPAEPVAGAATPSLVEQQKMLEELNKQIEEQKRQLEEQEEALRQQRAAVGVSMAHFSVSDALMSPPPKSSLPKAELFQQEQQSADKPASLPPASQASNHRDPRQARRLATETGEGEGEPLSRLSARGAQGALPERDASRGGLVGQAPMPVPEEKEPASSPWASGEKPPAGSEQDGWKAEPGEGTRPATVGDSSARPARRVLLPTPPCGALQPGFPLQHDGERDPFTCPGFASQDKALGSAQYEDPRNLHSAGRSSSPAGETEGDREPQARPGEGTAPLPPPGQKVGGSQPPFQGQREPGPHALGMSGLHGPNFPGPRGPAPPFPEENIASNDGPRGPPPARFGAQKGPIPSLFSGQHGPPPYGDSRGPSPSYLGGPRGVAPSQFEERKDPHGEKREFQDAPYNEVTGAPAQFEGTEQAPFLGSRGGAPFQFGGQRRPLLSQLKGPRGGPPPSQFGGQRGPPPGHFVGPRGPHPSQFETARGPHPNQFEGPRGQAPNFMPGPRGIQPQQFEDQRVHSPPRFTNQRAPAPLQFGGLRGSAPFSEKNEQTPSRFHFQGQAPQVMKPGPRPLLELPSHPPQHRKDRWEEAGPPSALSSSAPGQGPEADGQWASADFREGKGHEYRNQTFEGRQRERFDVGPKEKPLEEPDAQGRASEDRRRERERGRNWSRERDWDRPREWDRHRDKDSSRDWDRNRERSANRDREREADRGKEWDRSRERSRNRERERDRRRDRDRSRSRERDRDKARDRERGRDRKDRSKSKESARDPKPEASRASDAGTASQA
UniProt Q9UNQ2: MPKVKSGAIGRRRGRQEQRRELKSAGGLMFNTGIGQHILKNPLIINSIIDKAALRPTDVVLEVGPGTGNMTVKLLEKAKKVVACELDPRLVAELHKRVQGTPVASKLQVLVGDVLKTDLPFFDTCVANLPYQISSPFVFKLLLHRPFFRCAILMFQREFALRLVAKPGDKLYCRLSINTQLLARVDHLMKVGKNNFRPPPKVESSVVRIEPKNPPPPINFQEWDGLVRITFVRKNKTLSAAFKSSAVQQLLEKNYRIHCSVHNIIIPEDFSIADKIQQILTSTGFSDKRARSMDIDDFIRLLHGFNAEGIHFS

Assays:
Assay in all cases: protein microarray (ProtoArray v5.0), streptavidin-Alexa Fluor 647
Conditions in all cases: 3'-biotin; 20 mM Tris (pH 7.5), 5 mM MgCl2, 100 mM KCl, 0.1% Tween-20, A/T-rich and random oligonucleotide blockers; temperature not stated; high values mean tight binding
DGCR6 (human) = system: DGCR6 (human)
DIABLO (human) = system: DIABLO (human)
DIDO1 = DIDO1 (UniProt Q9BTC0)
DIMT1L = DIMT1L (UniProt Q9UNQ2)
DIP (human) = system: DIP (human)
DKFZP434K028 (human) = system: DKFZP434K028 (human)
DKFZP564O0823 (human) = system: DKFZP564O0823 (human)
DKFZp434B1231 (human) = system: DKFZp434B1231 (human)
DLK2 (human) = system: DLK2 (human)
DMD (human) = system: DMD (human)

In the case of “GGTGACAGGGGTATGGGGAGGGG [G4-2 biotinylated (Ct1)]”, the binding signal (DGCR6 (human)) is reported as -0.402 z-score, the binding signal (DIABLO (human)) is reported as -0.395 z-score and the binding signal (DIDO1) is reported as 4.25 z-score. The binding signal (DIMT1L) was 6.79 z-score, the binding signal (DIP (human)) was -0.378 z-score and the binding signal (DKFZP434K028 (human)) was 4.33 z-score. For the same sequence, the binding signal (DKFZP564O0823 (human)) was -0.379 z-score, the binding signal (DKFZp434B1231 (human)) was -0.384 z-score and the binding signal (DLK2 (human)) was -0.36 z-score. The binding signal (DMD (human)) was -0.391 z-score and -0.398 z-score.
